No constants are given. Whether binding was seen depends on the method and setting. In cells and extracts the contact can be indirect. These calls come from enrichment with a bait or labelling near it, and not all partners need be listed.
Biological target: T1, EFCAB7 (human (endogenous in Hep3B)) (UniProt A8K855)
T1 sequence: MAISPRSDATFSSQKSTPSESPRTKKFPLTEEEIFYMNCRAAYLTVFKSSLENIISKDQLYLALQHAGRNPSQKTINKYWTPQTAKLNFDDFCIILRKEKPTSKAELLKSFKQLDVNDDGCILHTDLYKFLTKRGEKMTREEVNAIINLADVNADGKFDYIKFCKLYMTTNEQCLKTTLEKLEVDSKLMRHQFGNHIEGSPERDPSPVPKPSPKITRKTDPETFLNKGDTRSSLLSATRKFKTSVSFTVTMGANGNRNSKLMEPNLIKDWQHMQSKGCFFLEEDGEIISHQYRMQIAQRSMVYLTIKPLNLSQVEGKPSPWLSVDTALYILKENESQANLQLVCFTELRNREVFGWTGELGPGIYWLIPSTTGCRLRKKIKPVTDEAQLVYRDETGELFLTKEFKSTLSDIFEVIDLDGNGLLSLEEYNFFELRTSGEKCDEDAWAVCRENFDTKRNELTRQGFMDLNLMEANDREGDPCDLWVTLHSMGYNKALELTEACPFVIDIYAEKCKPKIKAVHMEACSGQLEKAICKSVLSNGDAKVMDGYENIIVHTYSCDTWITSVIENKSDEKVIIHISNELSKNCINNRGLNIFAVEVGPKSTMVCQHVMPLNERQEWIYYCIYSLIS
Test: affinity purification with mass spectrometry; mass spectrometry of proteins interacting with EFCAB7 in HCC tumor cell lines; no method described

Amino acid sequences for entries named in this document (tags omitted).
UniProt Q99497: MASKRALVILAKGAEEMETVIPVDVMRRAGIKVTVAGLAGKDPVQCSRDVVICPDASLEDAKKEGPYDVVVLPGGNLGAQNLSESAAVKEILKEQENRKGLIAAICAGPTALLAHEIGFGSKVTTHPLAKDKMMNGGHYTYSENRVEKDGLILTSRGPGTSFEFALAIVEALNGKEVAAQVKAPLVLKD

binding: binds
Substance: PARK7 (from UniProt Q99497 1-189)

From PMC11424591
